From article PMC6795895
For at least one entry, the source does not settle the construct or the ends of the probe. At least one result comes from cells or an extract, where the contact may be indirect.

Chains of the proteins cited; added tags and fusions are not shown. Lines headed by an entry give the natural chain unless they say otherwise; changes in a name come on top.
UniProt Q9WTL8: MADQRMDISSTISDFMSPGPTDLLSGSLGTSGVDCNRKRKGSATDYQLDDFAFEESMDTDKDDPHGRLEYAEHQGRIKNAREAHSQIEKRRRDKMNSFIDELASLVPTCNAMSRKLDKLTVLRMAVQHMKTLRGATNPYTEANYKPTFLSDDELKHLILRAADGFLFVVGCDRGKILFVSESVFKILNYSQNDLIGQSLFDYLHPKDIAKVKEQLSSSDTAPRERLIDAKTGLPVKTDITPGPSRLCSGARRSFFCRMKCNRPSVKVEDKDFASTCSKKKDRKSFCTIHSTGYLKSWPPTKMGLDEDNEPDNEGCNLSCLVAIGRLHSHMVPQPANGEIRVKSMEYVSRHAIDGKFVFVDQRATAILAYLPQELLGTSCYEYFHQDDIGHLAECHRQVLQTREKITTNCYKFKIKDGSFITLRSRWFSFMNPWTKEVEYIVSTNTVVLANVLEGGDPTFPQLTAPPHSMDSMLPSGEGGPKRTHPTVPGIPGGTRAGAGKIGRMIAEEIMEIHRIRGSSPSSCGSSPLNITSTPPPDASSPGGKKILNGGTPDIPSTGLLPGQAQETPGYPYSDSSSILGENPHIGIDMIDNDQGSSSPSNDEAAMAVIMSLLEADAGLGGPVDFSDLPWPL

Target: Bmal1 (UniProt Q9WTL8)
Assay: EMSA
Settings: EMSA binding buffer (Beyotime kit, composition and pH not stated), 6 μg nuclear protein, 0.5 nmol biotin probe, 12.5 nmol unlabeled competitor; protein in an extract; label: biotin

| Sequence | binding result |
| --- | --- |
| TTCGGATGTTCCAGCTGCCTTTATCTCC (double strand) [Hnf4α-Ebox-1] | binds |
| AGGCTGCTGGACATGTGTGGAGAGGCCA (double strand) [Hnf4α-Ebox-3] | binds |
